Test results as given in US20200297601A1, “COMPOSITION FOR SKIN MOISTURIZATION OR SKIN WHITENING, CONTAINING PENTACYCLIC TRITERPENE CAFFEIC ACID ESTERS” (AMOREPACIFIC CORPORATION, priority 2016, published 2020).
Some of these results come from one statement about several compounds together.

Test system: B16 melanoma cells
Assay: Melanin assay using B16 melanoma cells
Type: cell-based
Settings: cultured 6 days, melanin normalized to total protein, FIG. 4

Q: Which “skin whitening effect (melanin content)” value does the source give for `CC1(C)CCC2(CO)CCC3(C)C(=CCC4C5(C)CCC(OC(=O)/C=C/c6ccc(O)c(O)c6)C(C)(CO)C5CCC43C)C2C1` (stereo not drawn) [Example 2, 3β,23,28-trihydroxy-12-oleanene 3β-caffeate] here?
A: superior skin whitening effect as compared to Comparative Example 1 and the positive control group
